Record: PubChem BioAssay AID743454 (Peter MacCallum Cancer Centre, 2014)
In all, the deposit lists about 18,000 reagents; below is a part drawn at random. Over the whole deposit, 450 (2.5%) got an active call. 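Single biological run; no consistent viability z cut-off exists, so the class columns, not z-scores, define the calls.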 Unmarked entries are inactive.

- Purpose: 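Search for knock-downs that restore vorinostat killing in resistant colon cancer cells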 (primary screen)
- Cell system: human HCT116-VR colon cancer cells, selected for vorinostat resistance
- Reagent: siRNA pool against human genes, 40 nM siRNA pool
- Timing: vorinostat for 24 h, read-out about 72 h after transfection
- Conditions: vorinostat at 2.5 µM final
- Detection: 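Two measures, CellTiter-Fluor viability and luminescent caspase 3/7 activity, each as fold change against same-plate mock wells, mean of duplicates, then screen-wide robust z-score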
- Reading the numbers: viability robust z-score: higher = more viable cells than screen typical; caspase robust z-score: higher = more caspase 3/7 activity than screen typical
- Hit rule: 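a knock-down is a hit when classed RV1 or RV2 for lowered viability, or CA1 or CA2 for caspase activation; those lethal without drug were dropped; hits were retested singly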

target,viability hit class,caspase hit class,viability robust z-score,caspase robust z-score
GRK2,no change,no change,-0.3,-0.06
TARBP2,no change,no change,1.82,0.96
SERBP1,no change,no change,1.1,3.68
GARIN4,no change,no change,-0.53,-0.68
MARCHF2,no change,no change,-0.5,2.04
ZNF358,no change,no change,-0.16,0.92
GALM,no change,no change,1.98,0.12
PRKX,no change,no change,-0.32,-0.98
CRYBG3,no change,no change,-1.38,-0.19
SLC15A4,no change,no change,-0.28,-0.34
FBXL4,no change,no change,-1.29,-1.38
BMP6,no change,no change,0.76,-0.4
GJB3,no change,no change,0.54,-0.62
PPBP,no change,no change,1.22,-0.98
HMOX1,no change,no change,0.34,-0.58
PCDHA10,no change,no change,-1.81,2.13
MOGAT3,no change,no change,-0.51,2.4
WARS2,no change,no change,0.34,-0.32
TTLL13,no change,no change,0.24,0.56
SH3RF2,no change,no change,0.76,0.34
SYNGR3,no change,no change,0.04,-0.3
SLCO1B1,no change,no change,-0.24,-0.52
RNASE4,no change,no change,0.52,-0.68

An excerpt from above, limited to “viability hit class”:
SLC15A4 = no change
FBXL4 = no change
